Laboratory results published in the supplement of paper PMC10849652.
The other results are listed elsewhere or left out.

Sequences of proteins named here, by UniProt entry; tags and fusion partners are left off. A change or cut given only in a name is not applied to a line headed by its entry.
UniProt Q8IZA0: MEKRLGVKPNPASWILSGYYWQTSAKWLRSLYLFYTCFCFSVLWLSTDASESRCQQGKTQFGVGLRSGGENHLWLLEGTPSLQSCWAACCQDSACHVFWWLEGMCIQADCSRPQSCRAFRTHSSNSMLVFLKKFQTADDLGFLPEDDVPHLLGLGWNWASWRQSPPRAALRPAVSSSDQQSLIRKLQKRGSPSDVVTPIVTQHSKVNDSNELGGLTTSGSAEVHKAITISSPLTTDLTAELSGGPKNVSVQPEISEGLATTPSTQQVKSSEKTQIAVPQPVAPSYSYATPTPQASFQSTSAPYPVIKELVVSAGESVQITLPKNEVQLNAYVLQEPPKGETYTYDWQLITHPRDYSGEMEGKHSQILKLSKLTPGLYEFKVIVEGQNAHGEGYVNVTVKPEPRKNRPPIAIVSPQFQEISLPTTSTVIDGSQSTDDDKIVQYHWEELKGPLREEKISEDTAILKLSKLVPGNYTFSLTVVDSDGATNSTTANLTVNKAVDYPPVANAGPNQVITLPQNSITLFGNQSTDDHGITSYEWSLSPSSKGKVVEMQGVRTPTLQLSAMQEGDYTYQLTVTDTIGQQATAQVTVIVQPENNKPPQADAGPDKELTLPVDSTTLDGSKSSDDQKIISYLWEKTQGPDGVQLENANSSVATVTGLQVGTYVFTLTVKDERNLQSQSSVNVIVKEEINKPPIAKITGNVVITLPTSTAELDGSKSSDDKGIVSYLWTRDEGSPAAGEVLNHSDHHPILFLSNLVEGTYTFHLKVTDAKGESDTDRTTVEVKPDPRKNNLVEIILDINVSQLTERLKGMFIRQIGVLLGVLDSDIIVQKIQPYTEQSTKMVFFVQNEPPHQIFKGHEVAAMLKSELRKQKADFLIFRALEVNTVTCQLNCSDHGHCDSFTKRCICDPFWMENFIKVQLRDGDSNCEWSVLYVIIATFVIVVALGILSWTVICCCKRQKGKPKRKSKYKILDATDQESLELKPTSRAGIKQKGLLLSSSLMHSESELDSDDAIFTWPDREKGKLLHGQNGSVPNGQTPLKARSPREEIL
UniProt Q9BW62: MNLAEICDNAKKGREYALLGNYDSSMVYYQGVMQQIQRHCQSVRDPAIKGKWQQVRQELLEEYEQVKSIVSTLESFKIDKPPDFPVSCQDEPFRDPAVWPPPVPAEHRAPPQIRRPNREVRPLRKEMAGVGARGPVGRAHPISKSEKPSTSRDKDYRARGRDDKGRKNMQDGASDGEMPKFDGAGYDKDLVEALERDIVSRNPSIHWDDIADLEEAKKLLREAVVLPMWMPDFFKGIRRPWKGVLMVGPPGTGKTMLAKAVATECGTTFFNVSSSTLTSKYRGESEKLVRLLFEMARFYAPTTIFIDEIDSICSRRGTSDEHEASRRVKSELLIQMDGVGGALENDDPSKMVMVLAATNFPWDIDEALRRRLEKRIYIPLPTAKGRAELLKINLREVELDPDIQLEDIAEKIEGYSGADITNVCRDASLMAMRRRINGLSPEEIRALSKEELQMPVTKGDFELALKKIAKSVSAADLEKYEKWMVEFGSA
UniProt Q9H7Z6: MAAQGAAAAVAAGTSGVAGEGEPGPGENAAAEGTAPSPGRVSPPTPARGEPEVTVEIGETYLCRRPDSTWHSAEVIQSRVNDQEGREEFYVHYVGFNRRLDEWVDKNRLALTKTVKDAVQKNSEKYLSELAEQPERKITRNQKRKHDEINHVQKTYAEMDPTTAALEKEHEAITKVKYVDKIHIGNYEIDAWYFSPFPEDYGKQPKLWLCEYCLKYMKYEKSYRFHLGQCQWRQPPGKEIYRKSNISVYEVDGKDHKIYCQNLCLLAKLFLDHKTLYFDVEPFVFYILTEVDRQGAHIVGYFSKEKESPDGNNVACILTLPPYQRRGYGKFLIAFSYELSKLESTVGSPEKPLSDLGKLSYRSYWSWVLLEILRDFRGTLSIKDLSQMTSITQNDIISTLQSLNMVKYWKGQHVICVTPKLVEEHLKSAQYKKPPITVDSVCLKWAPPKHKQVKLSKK
UniProt Q9BQ90: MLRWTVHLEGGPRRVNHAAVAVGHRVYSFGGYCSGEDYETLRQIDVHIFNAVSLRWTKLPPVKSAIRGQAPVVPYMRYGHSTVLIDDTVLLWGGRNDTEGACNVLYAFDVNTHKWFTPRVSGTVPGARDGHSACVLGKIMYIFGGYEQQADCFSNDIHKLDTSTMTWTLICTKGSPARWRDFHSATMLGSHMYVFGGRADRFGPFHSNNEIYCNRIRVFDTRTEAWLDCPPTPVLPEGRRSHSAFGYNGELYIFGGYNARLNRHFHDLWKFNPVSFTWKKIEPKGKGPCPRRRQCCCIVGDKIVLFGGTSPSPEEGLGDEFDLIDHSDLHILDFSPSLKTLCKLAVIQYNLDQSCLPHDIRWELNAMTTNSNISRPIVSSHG
UniProt Q9NS87: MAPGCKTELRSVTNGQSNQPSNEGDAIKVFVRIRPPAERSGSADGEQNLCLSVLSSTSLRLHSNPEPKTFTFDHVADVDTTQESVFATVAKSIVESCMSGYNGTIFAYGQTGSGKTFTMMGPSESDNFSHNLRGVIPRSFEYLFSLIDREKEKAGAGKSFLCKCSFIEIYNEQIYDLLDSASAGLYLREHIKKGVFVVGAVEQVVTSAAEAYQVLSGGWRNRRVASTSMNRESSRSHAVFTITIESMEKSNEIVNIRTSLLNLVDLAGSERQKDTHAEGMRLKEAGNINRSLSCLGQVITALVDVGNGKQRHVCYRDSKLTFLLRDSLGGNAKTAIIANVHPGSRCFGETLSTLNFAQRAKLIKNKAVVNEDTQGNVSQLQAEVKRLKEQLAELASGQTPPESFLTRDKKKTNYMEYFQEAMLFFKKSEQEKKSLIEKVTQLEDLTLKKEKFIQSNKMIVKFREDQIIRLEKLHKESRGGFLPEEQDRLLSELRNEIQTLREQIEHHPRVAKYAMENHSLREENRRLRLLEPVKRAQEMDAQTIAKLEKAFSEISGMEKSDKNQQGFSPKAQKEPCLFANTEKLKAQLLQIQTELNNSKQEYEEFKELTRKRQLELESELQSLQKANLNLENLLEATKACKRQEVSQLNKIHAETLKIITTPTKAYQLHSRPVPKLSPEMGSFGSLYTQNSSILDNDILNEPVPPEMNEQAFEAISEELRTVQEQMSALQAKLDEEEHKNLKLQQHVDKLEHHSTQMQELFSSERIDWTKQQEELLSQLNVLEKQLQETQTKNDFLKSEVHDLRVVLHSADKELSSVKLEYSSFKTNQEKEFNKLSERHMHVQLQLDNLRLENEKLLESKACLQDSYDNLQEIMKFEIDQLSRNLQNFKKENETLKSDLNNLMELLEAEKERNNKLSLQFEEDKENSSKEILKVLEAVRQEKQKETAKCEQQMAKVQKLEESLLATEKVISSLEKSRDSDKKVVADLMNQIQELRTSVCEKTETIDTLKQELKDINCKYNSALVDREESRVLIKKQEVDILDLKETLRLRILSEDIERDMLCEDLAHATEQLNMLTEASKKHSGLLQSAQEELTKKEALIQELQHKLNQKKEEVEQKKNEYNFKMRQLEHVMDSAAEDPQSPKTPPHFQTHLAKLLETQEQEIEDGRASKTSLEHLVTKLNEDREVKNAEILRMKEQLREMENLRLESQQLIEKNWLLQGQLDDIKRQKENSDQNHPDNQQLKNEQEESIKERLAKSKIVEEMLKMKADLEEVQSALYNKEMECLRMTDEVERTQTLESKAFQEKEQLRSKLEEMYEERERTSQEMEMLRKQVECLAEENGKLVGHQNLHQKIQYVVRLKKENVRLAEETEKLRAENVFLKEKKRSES
UniProt P33176: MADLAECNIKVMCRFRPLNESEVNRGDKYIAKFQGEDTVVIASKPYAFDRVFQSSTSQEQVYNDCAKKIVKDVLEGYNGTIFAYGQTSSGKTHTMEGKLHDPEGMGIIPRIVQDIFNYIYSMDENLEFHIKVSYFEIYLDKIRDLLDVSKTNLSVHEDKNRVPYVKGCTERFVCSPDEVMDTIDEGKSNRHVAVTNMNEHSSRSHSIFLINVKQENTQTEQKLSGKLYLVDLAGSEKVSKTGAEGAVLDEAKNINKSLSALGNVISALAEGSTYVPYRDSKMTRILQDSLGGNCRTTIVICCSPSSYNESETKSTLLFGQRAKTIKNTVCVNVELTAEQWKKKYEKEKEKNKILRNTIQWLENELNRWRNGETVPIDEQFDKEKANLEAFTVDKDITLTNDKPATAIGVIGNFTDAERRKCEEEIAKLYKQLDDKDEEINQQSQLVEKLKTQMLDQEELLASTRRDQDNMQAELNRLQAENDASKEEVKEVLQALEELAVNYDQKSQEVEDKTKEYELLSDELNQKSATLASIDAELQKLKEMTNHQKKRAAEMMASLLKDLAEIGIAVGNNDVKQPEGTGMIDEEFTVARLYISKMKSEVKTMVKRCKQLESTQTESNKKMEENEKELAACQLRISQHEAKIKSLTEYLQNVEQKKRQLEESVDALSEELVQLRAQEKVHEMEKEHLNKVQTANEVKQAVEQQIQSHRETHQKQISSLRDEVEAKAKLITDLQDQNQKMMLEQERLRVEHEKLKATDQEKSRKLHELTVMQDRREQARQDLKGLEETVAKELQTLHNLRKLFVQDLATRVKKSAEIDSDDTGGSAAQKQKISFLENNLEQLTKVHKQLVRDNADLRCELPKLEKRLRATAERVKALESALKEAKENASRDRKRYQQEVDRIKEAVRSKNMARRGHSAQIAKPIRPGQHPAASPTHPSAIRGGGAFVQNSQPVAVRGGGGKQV
UniProt O15066: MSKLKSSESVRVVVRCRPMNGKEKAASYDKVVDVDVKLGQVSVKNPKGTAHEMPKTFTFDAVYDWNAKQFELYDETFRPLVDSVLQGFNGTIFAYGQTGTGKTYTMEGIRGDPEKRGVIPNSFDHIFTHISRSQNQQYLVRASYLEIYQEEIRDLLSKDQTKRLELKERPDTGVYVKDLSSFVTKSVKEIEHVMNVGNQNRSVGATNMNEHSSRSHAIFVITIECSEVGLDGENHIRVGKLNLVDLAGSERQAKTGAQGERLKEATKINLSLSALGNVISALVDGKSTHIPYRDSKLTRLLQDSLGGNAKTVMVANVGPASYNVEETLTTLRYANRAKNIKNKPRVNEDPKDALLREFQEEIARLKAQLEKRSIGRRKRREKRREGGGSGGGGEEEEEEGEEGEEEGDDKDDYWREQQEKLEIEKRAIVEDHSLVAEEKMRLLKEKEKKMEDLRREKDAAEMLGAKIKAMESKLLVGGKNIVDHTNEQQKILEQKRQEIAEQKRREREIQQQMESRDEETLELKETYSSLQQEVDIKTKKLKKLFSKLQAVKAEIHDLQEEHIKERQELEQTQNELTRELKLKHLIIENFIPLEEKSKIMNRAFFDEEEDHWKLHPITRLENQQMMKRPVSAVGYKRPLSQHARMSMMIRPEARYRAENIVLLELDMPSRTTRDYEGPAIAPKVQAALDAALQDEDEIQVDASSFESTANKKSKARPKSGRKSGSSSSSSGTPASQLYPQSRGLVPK

Assays:
Experiment in all cases: log2 fold change, soluble protein after heating vs DMSO (PISA); higher = thermal stabilisation; K562 cells, 10 uM, 30 min; active = over 0.2 and 3.5 SD of the protein, either way, in both replicates (recomputed)
saracatinib = compound: CN1CCN(CCOc2cc(OC3CCOCC3)c3c(Nc4c(Cl)ccc5c4OCO5)ncnc3c2)CC1 [saracatinib]
In short: (§1)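 Thermal stability values are relative to control samples and come from duplicates. They are expressed as log2 fold changes. For measurement, K562 cells (2×10^6 cells/mL) received 10 μM compound for 30 min, and aliquots were heated for 3 min over 48°C-58°C, pooled, and extracted at 4°C in PBS with 0.5% NP-40. Soluble protein, the supernatant after 21,000xg for 90 min, was quantified by TMTpro 16plex LC-MS/MS with equalised channel sums.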

sotrastaurin = compound: CN1CCN(c2nc(C3=C(c4c[nH]c5ccccc45)C(=O)NC3=O)c3ccccc3n2)CC1 [sotrastaurin]
In short: as §1

alvocidib = compound: CN1CC[C@H](c2c(O)cc(O)c3c(=O)cc(-c4ccccc4Cl)oc23)[C@H](O)C1 [alvocidib]
In short: as §1

Tubastatin A = compound: CN1CCc2c(c3ccccc3n2Cc2ccc(C(=O)NO)cc2)C1 [Tubastatin A]
In short: as §1

[1] = compound: CNC(=O)C1=CC=CC=C1NC2=NC(=NC=C2Cl)NC3=C(C=C(C=C3)N4CCOCC4)OC
In short: as §1

defactinib = compound: CNC(=O)c1ccc(Nc2ncc(C(F)(F)F)c(NCc3nccnc3N(C)S(C)(=O)=O)n2)cc1 [defactinib]
In short: as §1

rucaparib = compound: CNCc1ccc(-c2[nH]c3cc(F)cc4c3c2CCNC4=O)cc1 [rucaparib]
In short: as §1

[2] = compound: CNc1nc(-c2ccc3c(N)n[nH]c3c2)cc(N2C[C@@H](C(=O)NC3CCCCC3)CC[C@H]2C)n1
In short: as §1

encorafenib = compound: COC(=O)N[C@@H](C)CNc1nccc(-c2cn(C(C)C)nc2-c2cc(Cl)cc(NS(C)(=O)=O)c2F)n1 [encorafenib]
In short: as §1

[3] = compound: COC(=O)[C@H](CCSC)NC(=O)C1=C(C=C(C=C1)NC[C@H](CS)N)C2=CC=CC=C2
In short: as §1

[4] = compound: COC1=CC=C(C=C1)CN2C=CC3=C2C=C(C=C3)C(=O)NO
In short: as §1

filanesib = compound: CON(C)C(=O)N1N=C(c2cc(F)ccc2F)S[C@@]1(CCCN)c1ccccc1 [filanesib]
In short: as §1

zotarolimus = compound: CO[C@H]1C[C@@H]2CC[C@@H](C)[C@@](O)(O2)C(=O)C(=O)N2CCCC[C@H]2C(=O)O[C@H]([C@H](C)C[C@@H]2CC[C@H](n3cnnn3)[C@H](OC)C2)CC(=O)[C@H](C)/C=C(\C)[C@@H](O)[C@@H](OC)C(=O)[C@H](C)C[C@H](C)/C=C/C=C/C=C/1C [zotarolimus]
In short: as §1

idasanutlin = compound: COc1cc(C(=O)O)ccc1NC(=O)[C@@H]1N[C@@H](CC(C)(C)C)[C@](C#N)(c2ccc(Cl)cc2F)[C@H]1c1cccc(Cl)c1F [idasanutlin]
In short: as §1

alisertib = compound: COc1cc(Nc2ncc3c(n2)-c2ccc(Cl)cc2C(c2c(F)cccc2OC)=NC3)ccc1C(=O)O [alisertib]
In short: as §1

[5] = compound: COc1cc2nc(-c3cc(F)ccc3O)nc(N[C@@H]3CNC[C@H]3C(C)(C)O)c2cc1OC
In short: as §1

gefitinib = compound: COc1cc2ncnc(Nc3ccc(F)c(Cl)c3)c2cc1OCCCN1CCOCC1 [gefitinib]
In short: as §1

[6] = compound: COc1cccc2cc(-c3nc([C@H]4CC[C@H](C(=O)O)CC4)n4ncnc(N)c34)[nH]c12
In short: as §1

lapatinib = compound: CS(=O)(=O)CCNCc1ccc(-c2ccc3ncnc(Nc4ccc(OCc5cccc(F)c5)c(Cl)c4)c3c2)o1 [lapatinib]
In short: as §1

pictilisib = compound: CS(=O)(=O)N1CCN(Cc2cc3nc(-c4cccc5[nH]ncc45)nc(N4CCOCC4)c3s2)CC1 [pictilisib]
In short: as §1

Measured: log2 fold change

KIAA0319L (UniProt Q8IZA0)
inactive: saracatinib 0.014 | sotrastaurin 0.054 | alvocidib -0.018 | Tubastatin A -0.018 | [1] 0.01 | defactinib -0.024 | rucaparib -0.011 | [2] -0.027 | encorafenib -0.029 | [3] 0.004 | [4] 0.027 | filanesib 0.017 | zotarolimus 0.007 | idasanutlin -0.011 | alisertib -0.011 | [5] 0.001 | gefitinib -0.006 | [6] 0.035 | lapatinib 0.028 | pictilisib 0.004

KATNAL1 (UniProt Q9BW62)
inactive: saracatinib 0.055 | sotrastaurin -0.134 | alvocidib -0.123 | Tubastatin A -0.078 | defactinib -0.043 | [2] -0.101 | [3] 0.034 | [4] -0.035 | filanesib 0.059 | zotarolimus -0.009 | idasanutlin 0.046 | [5] -0.14 | lapatinib -0.072

KAT8 isoform 2 (UniProt Q9H7Z6)
inactive: saracatinib 0.132 | sotrastaurin -0.06 | alvocidib 0.035 | Tubastatin A 0.034 | [1] -0.031 | defactinib -0.062 | [2] -0.206 | [3] 0.062 | filanesib -0.001 | zotarolimus -0.188 | idasanutlin 0.002 | alisertib 0.069 | [5] 0 | gefitinib 0.027 | [6] 0.036 | lapatinib -0.058 | pictilisib 0.101

KLHDC3 (UniProt Q9BQ90)
inactive: saracatinib -0.093 | sotrastaurin -0.031 | alvocidib -0.069 | Tubastatin A 0.034 | [1] -0.01 | defactinib -0.012 | rucaparib 0.063 | [2] -0.037 | encorafenib -0.041 | [3] -0.046 | [4] 0.215 | filanesib 0 | zotarolimus -0.021 | idasanutlin 0.015 | [5] 0.117 | gefitinib 0.062 | lapatinib 0.003 | pictilisib -0.009

KIF15 (UniProt Q9NS87)
inactive: saracatinib -0.15 | sotrastaurin -0.156 | alvocidib 0.025 | Tubastatin A 0.142 | [1] -0.106 | defactinib 0.103 | rucaparib 0.485 | [2] 0.045 | encorafenib 0.281 | [3] -0.009 | [4] 0.058 | filanesib 0.263 | zotarolimus 0.118 | idasanutlin 0.308 | alisertib 0.805 | [6] -0.087 | pictilisib -0.162

KIF5B (UniProt P33176)
inactive: saracatinib 0.014 | sotrastaurin 0.016 | alvocidib -0.06 | Tubastatin A -0.01 | [1] -0.002 | defactinib -0.022 | rucaparib -0.019 | [2] 0.015 | encorafenib 0.014 | [3] -0.011 | [4] 0.03 | filanesib -0.032 | zotarolimus 0.04 | idasanutlin -0.052 | alisertib -0.066 | [5] 0.01 | gefitinib -0.005 | [6] -0.01 | lapatinib 0.008 | pictilisib 0.017

IWS1 (UniProt Q96ST2)
active: alvocidib 0.336
inactive: saracatinib -0.042 | sotrastaurin 0.021 | Tubastatin A 0.04 | [1] -0.054 | defactinib 0.035 | rucaparib 0.032 | [2] -0.034 | encorafenib -0.1 | [3] -0.127 | [4] 0.007 | filanesib -0.013 | zotarolimus -0.006 | idasanutlin -0.105 | alisertib -0.068 | [5] 0.124 | gefitinib -0.055 | [6] 0.055 | lapatinib -0.077 | pictilisib -0.011

KIF3B (UniProt O15066)
inactive: saracatinib -0.068 | sotrastaurin 0.005 | Tubastatin A 0.002 | [1] 0.069 | defactinib 0.028 | rucaparib -0.189 | [2] -0.063 | encorafenib 0.034 | [3] -0.043 | [4] -0.071 | filanesib 0.04 | zotarolimus 0.027 | idasanutlin -0.252 | alisertib -0.071 | [5] 0.164 | [6] 0.04 | lapatinib 0.035 | pictilisib -0.161
